Data as given in PubChem BioAssay AID1224828 (NIAID, 2016).

Assay: 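Knock-downs that increase or decrease LPS-induced p65 nuclear translocation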 (primary screen)
Cell system: mouse RAW264.7 G9 macrophage reporter cells (GFP-p65, Tnf promoter-mCherry)
Reagents: siRNA pool against mouse genes, 100 nM
Duration: 2 days siRNA transfection, then 40 min LPS before fixation
Challenge: LPS (Salmonella minnesota R595) at 10 ng/ml
Read-out: 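Imaged p65 nuclear translocation ratio, normalised to the plate median, converted to robust z-scores and averaged across two replicates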
Direction: p65 translocation robust z-score: higher = more nuclear NF-kappaB p65 after LPS than the plate median; nuclear/cytoplasmic p65 ratio: higher = more nuclear NF-kappaB p65
Active means: 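Active if robust z is above 3.3 (negative regulators) or below -1.56, the Tlr4 control median (positive regulators); activity score 50 or more; control wells not called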
Calls: active = hit (p65 shift raised or lowered); inactive = no clear change
The whole screen tested about 17,000 reagents; below is a part drawn at random. 762 of all reagents (4.5%) were called active. 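Active calls include both raised and lowered p65 entry, mostly lowered; wells with fewer than 50 cells lack a z-score.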 The raw values are shown without normalisation. Entries without a mark were called inactive. A reagent listed more than once was tested more than once; the source does not tell the runs apart.

gene	p65 translocation robust z-score	nuclear/cytoplasmic p65 ratio, rep 1	nuclear/cytoplasmic p65 ratio, rep 2	low cell count flag
Scn1b (GeneID 20266)	-0.42	1.47	1.37	enough cells to score
Galm (GeneID 319625)	0.63	1.76	1.48	enough cells to score
Pex1 (GeneID 71382)	0.26	1.61	1.31	enough cells to score
Nol11 (GeneID 68979)	0.43	1.54	1.57	enough cells to score
Grk5 (GeneID 14773)	0.53	1.92	1.34	enough cells to score
Grk5 (GeneID 14773)	-0.49	1.36	1.52	enough cells to score
Zik1 (GeneID 22775)	0.27	1.42	1.31	enough cells to score
Cd209c (GeneID 170776)	-2.86 (active)	1.14	1.34	enough cells to score
Nup133 (GeneID 234865)	-0.06	1.89	1.36	enough cells to score
Fam50a (GeneID 108160)		1.36	1.69	fewer than 50 cells per well; well left out of scoring
Nmi (GeneID 64685)	0.54	1.51	1.49	enough cells to score
Ttll3 (GeneID 101100)	1.79	1.5	1.35	enough cells to score
Adamts9 (GeneID 101401)	0.47	1.61	1.48	enough cells to score
Hbb-b2 (GeneID 15130)	1.36	1.92	1.68	enough cells to score
Serpina7 (GeneID 331535)	-0.29	1.63	1.52	enough cells to score
Sema3f (GeneID 20350)	0.89	1.57	1.79	enough cells to score
Dap3 (GeneID 65111)	0.02	1.46	1.38	enough cells to score
Bag4 (GeneID 67384)	-0.49	1.53	1.55	enough cells to score
Kif2a (GeneID 16563)	0.12	1.54	1.35	enough cells to score
9130221H12Rik (GeneID 77124)	-1.62 (active)	1.26	1.26	enough cells to score
Stimate (GeneID 69179)		1.1	1.27	fewer than 50 cells per well; well left out of scoring
Pirt (GeneID 193003)		1.39	1.16	fewer than 50 cells per well; well left out of scoring
Mlxipl (GeneID 58805)	-1.33	1.43	1.3	enough cells to score
4930474M22Rik (GeneID 74917)	-0.76	1.22	1.21	enough cells to score

Reagents above with an active call, once more:
gene	p65 translocation robust z-score	nuclear/cytoplasmic p65 ratio, rep 1	nuclear/cytoplasmic p65 ratio, rep 2	low cell count flag
Cd209c (GeneID 170776)	-2.86 (active)	1.14	1.34	enough cells to score
9130221H12Rik (GeneID 77124)	-1.62 (active)	1.26	1.26	enough cells to score
